From US20130253037A1, “AURORA A KINASE EFFECTORS” (PURDUE RESEARCH FOUNDATION, priority 2010, published 2013)
No constants are given. Whether binding was seen depends on the method and setting. Binding seen in cells or lysates may run through a third protein. Some entries that bind do so weakly or less than the wild type.

The chains behind the UniProt entries cited, without tags or fusion partners.
UniProt Q8WV24: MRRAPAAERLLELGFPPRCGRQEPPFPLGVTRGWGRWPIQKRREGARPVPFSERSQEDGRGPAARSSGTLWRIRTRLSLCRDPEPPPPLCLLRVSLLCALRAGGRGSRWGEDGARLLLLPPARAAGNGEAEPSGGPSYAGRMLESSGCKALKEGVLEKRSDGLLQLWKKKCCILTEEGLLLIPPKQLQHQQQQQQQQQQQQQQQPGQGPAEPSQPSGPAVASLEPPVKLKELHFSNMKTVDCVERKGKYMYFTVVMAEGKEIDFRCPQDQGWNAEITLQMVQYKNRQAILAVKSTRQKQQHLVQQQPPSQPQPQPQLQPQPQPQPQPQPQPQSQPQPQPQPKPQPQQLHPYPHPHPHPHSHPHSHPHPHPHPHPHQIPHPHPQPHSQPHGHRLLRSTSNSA

What was measured:
[1] = target: Pleckstrin homology-like domain, family A, member 1 (PHLDA1) (endogenous, MDA-MB-231 cells) (UniProt Q8WV24); assay: co-immunoprecipitation from MDA-MB-231 cells (PHLDA1 IP probed for Aurora A; Aurora A IP probed for PHLDA1)
[2] = target: Pleckstrin homology-like domain, family A, member 1 (PHLDA1) (endogenous, MDA-MB-231 cells) (UniProt Q8WV24); assay: co-immunoprecipitation from MDA cells; PHLDA1 immune complexes probed for Aurora A, with similar results in the reverse IP (FIG. 1C)

binding [1]: binds
binding [2]: binds
B1: Aurora A kinase (endogenous, MDA-MB-231 cells) (enzyme, human, UniProt O14965 1-403, looked up)
chain: MDRSKENCISGPVKATAPVGGPKRVLVTQQFPCQNPLPVNSGQAQRVLCPSNSSQRIPLQAQKLVSSHKPVQNQKQKQLQATSVPHPVSRPLNNTQKSKQPLPSAPENNPEEELASKQKNEESKKRQWALEDFEIGRPLGKGKFGNVYLAREKQSKFILALKVLFKAQLEKAGVEHQLRREVEIQSHLRHPNILRLYGYFHDATRVYLILEYAPLGTVYRELQKLSKFDEQRTATYITELANALSYCHSKRVIHRDIKPENLLLGSAGELKIADFGWSVHAPSSRRTTLCGTLDYLPPEMIEGRMHDEKVDLWSLGVLCYEFLVGKPPFEANTYQETYKRISRVEFTFPDFVTEGARDLISRLLKHNPSQRPMLREVLEHPWITANSSKPSNCQNKESASKQS
